{"sequences": {"note": "The chains behind the UniProt entries cited, without tags or fusion partners.", "UniProt Q9Y6K9": "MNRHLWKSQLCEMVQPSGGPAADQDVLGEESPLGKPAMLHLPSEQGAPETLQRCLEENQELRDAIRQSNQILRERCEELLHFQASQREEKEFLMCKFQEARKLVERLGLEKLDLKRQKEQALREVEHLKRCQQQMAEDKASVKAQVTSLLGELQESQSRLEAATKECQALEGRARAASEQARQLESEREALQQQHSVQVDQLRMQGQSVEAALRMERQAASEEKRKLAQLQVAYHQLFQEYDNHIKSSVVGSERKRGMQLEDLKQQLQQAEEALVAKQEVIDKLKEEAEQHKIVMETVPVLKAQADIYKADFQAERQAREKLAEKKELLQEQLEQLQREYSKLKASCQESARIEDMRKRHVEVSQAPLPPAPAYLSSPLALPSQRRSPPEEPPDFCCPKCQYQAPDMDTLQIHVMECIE"}, "source": "paper PMC9223704", "target": "wild-type NEMO-GFP (IKKγ/NF-κB essential modulator) (human) (UniProt Q9Y6K9)", "experiment": "co-IP; HEK293 cells transfected with GFP-tagged wild-type or S8,17,31A NEMO; lysates of TNFα-stimulated (10 ng/mL) cells immunoprecipitated with anti-GFP (GFP Isolation Kit, Miltenyi), immunoblotted with anti-NEMO, anti-IKKα and anti-Vps4A", "note": "Results are given in words; binding and its absence hold for the method and conditions named. In cells and extracts the contact can be indirect. Some results given as binding are weak or reduced against the parent protein; the word gives no strength.", "data": [{"binder": "AAA-ATPase Vps4A (protein, UniProt Q9UN37 1-437) MTTSTLQKAIDLVTKATEEDKAKNYEEALRLYQHAVEYFLHAIKYEAHSDKAKESIRAKCVQYLDRAEKLKDYLRSKEKHGKKPVKENQSEGKGSDSDSEGDNPEKKKLQEQLMGAVVMEKPNIRWNDVAGLEGAKEALKEAVILPIKFPHLFTGKRTPWRGILLFGPPGTGKSYLAKAVATEANNSTFFSVSSSDLMSKWLGESEKLVKNLFELARQHKPSIIFIDEVDSLCGSRNENESEAARRIKTEFLVQMQGVGNNNDGTLVLGATNIPWVLDSAIRRRFEKRIYIPLPEEAARAQMFRLHLGSTPHNLTDANIHELARKTEGYSGADISIIVRDSLMQPVRKVQSATHFKKVCGPSRTNPSMMIDDLLTPCSPGDPGAMEMTWMDVPGDKLLEPVVCMSDMLRSLATTRPTVNADDLLKVKKFSEDFGQES", "values": [{"measurement": "binding", "result": "binds"}]}]}
